# In publication PMC10352294:
# Chains of the proteins cited; added tags and fusions are not shown.
# UniProt Q9QWV9: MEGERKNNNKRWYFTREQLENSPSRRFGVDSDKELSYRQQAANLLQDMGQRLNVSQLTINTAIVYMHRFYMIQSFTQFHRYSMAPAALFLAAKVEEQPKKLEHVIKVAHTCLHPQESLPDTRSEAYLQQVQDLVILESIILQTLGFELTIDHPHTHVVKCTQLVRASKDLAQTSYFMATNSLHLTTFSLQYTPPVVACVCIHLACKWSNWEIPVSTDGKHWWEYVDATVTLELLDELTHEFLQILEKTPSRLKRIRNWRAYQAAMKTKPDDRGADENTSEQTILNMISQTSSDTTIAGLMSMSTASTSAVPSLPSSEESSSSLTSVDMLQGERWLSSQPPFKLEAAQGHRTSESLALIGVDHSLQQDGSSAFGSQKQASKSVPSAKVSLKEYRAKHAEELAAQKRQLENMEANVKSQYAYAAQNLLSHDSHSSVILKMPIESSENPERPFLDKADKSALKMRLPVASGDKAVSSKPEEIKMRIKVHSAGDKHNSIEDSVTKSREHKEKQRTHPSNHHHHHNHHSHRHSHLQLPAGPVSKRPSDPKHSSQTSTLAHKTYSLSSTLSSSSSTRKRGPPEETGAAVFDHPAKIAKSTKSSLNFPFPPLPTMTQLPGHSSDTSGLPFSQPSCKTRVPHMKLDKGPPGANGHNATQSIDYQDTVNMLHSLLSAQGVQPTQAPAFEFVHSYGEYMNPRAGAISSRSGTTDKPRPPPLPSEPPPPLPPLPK
# UniProt Q921F2: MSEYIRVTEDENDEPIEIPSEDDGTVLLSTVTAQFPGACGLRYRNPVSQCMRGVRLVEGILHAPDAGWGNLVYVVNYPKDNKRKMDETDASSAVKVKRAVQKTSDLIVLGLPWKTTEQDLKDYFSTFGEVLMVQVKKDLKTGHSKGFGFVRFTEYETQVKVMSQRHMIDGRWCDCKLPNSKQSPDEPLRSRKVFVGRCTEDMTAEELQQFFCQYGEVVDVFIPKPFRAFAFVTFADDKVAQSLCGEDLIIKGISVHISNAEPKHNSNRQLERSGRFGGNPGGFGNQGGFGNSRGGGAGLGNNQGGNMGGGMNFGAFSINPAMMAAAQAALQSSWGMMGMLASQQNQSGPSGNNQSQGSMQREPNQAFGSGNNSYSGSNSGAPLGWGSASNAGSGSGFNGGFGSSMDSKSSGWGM
# No constants are given. Whether binding was seen depends on the method and setting. Binding seen in cells or lysates may run through a third protein. Some entries that bind do so weakly or less than the wild type.
# What was measured:
# [1] = target: Myc-Ccnt1 (UniProt Q9QWV9); assay: co-IP; 293t cells transfected with Flag-TDP-43 and Myc-Ccnt1 vectors, lysate precipitated with Flag or Myc antibody, Protein A/G magnetic beads, Western blotting
# [2] = target: Cyclin T1 (mouse (endogenous in 2-cell embryos)) (UniProt Q9QWV9); assay: proximity ligation; Duolink PLA in fixed, permeabilised mouse early and late 2-cell embryos; mouse anti-TDP-43 with rabbit anti-Polr2a, anti-P-Ser2 or anti-Ccnt1; Tdp43 oKO embryos as control
# [3] = target: Flag-TDP-43 (UniProt Q921F2); assay: co-IP; 293t cells transfected with Flag-TDP-43 and Myc-Ccnt1 vectors, lysate precipitated with Flag or Myc antibody, Protein A/G magnetic beads, Western blotting
substance,measurement,setting,value
Flag-TDP-43 (from UniProt Q921F2 1-414),binding,[1],binds
TDP-43 (Transactive response DNA binding protein 43 kDa) (from UniProt Q921F2 1-414),binding,[2],binds
Myc-Ccnt1 (from UniProt Q9QWV9 1-724),binding,[3],binds
